Measurements from PMC10312975.
Results are given in words; binding and its absence hold for the method and conditions named. Binding seen in cells or lysates may run through a third protein. A yes stands for co-enrichment or nearness to the bait. Other partners may have been found. For some assays here: No binding means not detected with the bait.

By UniProt entry, the sequences of proteins in these tests, tags left out.
UniProt Q9GZQ3: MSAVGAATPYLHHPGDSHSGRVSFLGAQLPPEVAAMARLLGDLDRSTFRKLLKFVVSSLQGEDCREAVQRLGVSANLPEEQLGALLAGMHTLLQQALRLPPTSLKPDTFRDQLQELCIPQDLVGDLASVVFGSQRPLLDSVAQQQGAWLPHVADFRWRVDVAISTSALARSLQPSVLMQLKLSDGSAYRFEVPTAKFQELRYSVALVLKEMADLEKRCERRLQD
UniProt Q9Y6G5: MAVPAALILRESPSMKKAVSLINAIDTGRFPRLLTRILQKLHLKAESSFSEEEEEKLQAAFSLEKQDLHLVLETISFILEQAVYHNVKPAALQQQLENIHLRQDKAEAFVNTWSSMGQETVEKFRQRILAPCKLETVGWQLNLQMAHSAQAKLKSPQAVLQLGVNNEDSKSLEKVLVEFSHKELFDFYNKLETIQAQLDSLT
UniProt O60826: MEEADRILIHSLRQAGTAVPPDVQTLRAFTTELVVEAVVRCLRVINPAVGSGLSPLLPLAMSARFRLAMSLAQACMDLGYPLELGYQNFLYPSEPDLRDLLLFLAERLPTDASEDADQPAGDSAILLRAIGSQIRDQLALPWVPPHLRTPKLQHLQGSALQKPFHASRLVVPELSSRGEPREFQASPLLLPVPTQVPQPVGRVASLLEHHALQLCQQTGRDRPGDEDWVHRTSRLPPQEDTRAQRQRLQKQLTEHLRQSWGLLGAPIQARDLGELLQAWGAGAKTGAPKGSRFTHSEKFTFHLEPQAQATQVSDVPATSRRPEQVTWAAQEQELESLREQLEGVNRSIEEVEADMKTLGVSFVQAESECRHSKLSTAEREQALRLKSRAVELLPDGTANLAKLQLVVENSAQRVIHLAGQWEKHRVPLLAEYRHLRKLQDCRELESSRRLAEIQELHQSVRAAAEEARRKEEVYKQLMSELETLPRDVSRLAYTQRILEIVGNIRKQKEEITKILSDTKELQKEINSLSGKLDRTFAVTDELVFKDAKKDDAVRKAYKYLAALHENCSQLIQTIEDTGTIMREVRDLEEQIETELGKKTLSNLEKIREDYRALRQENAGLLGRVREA
UniProt Q9NX08: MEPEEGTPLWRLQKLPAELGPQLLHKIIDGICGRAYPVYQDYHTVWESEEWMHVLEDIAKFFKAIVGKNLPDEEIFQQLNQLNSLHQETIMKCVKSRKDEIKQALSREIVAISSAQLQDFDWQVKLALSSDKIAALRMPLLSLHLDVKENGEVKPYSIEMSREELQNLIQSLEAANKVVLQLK
UniProt Q9H0A8: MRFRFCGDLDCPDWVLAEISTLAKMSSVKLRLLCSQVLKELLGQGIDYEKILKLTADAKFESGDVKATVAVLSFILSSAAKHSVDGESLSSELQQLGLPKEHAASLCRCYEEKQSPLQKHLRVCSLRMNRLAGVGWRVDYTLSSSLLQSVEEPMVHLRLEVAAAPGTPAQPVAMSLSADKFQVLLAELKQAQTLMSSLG
UniProt Q86VX2: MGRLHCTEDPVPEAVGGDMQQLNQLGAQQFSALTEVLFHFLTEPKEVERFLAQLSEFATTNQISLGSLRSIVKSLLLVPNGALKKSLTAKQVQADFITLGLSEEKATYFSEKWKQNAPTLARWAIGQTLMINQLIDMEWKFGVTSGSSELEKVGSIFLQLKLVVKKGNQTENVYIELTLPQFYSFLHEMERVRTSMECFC
UniProt Q7Z4G1: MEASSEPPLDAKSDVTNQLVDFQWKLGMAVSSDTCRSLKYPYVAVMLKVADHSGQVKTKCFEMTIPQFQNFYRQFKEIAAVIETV
UniProt Q567U6: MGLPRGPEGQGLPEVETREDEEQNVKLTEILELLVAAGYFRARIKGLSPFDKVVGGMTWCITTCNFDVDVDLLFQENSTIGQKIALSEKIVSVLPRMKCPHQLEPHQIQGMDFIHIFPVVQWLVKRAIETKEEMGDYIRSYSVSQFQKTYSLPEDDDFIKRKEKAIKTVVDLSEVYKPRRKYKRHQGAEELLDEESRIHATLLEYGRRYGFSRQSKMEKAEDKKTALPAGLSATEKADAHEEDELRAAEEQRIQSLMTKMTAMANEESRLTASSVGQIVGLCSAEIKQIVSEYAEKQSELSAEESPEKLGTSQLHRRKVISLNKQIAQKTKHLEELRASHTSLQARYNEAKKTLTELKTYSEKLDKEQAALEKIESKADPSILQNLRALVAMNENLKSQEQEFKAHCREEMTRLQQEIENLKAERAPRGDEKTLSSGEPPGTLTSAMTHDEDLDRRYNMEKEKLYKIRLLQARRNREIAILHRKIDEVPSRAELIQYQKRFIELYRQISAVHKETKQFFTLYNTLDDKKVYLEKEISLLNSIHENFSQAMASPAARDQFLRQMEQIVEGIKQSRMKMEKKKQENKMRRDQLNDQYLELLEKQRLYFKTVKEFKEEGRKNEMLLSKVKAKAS

Legend:
[1] = molecular target: HA-tagged COMMD1, stably expressed in COMMD1-deficient HeLa cells (human) (UniProt Q8N668); assay: affinity purification with mass spectrometry; HA immunoprecipitation from HeLa knockout cells rescued with HA-COMMD1 or HA-VPS26C, elution with HA peptide, blue native gel, bands at 720, 480 and 240 kDa analysed with iBAQ quantification
[2] = molecular target: HA-tagged VPS35L G325E, stably expressed in VPS35L knockout Huh-7 cells (human) (UniProt Q7Z3J2); assay: affinity purification with mass spectrometry; HA resin on Triton X-100 lysates of stable Huh-7 lines, elution with HA peptide, LC-MS/MS, compared with empty vector, triplicate samples
[3] = molecular target: HA-tagged VPS35L G902E, stably expressed in VPS35L knockout Huh-7 cells (human) (UniProt Q7Z3J2); assay: as above
[4] = molecular target: HA-tagged VPS35L S829E, stably expressed in VPS35L knockout Huh-7 cells (human) (UniProt Q7Z3J2); assay: as above
[5] = molecular target: HA-tagged VPS35L W6D, stably expressed in VPS35L knockout Huh-7 cells (human) (UniProt Q7Z3J2); assay: as above
[6] = molecular target: HA-tagged VPS35L wild type, stably expressed in VPS35L knockout Huh-7 cells (human) (UniProt Q7Z3J2); assay: as above
[7] = molecular target: HA-tagged VPS26C, stably expressed in VPS26C-deficient HeLa cells (human) (UniProt O14972); assay: affinity purification with mass spectrometry; HA immunoprecipitation from HeLa knockout cells rescued with HA-COMMD1 or HA-VPS26C, elution with HA peptide, blue native gel, bands at 720, 480 and 240 kDa analysed with iBAQ quantification

| binding [1] | Substance | also measured |
| --- | --- | --- |
| binds | COMMD5 (endogenous) (from UniProt Q9GZQ3 1-224) | – |
| binds | COMMD10 (endogenous) (from UniProt Q9Y6G5 1-202) | – |
| binds | CCDC22 (endogenous) (from UniProt O60826 1-627) | – |
| binds | DENND10 (endogenous) (from UniProt Q8TCE6 1-357) | binding [7]: binds |

The remaining lines, values behind:

| Substance | binding [1] | also measured |
| --- | --- | --- |
| VPS26C (endogenous) (from UniProt O14972 1-297) (other; other documents disagree on this pair) | binds | – |
| COMMD8 (endogenous) (from UniProt Q9NX08 1-183) | binds | – |
| VPS26C (endogenous) (from UniProt O14972 1-297) | – | binding [2]: no binding; binding [3]: binds; binding [4]: binds; binding [5]: binds; binding [6]: binds |
| COMMD4 (endogenous) (from UniProt Q9H0A8 1-199) | binds | – |
| COMMD9 (endogenous) (from UniProt Q9P000 1-198) | – | binding [7]: binds |
| COMMD7 (endogenous) (from UniProt Q86VX2 1-200) | binds | – |
| COMMD6 (endogenous) (from UniProt Q7Z4G1 1-85) | binds | – |
| CCDC93 (endogenous) (from UniProt Q567U6 1-631) | binds | – |
